From PMC12077799, “Fragment-based drug discovery for transthyretin kinetic stabilisers using a novel capillary zone electrophoresis method” (PLOS One, 2025)

Molecular target: Human transthyretin (TTR) thyroxine binding sites (Homo sapiens, UniProt P02766)
Test: TTR CZE Free Probe Peak Height Restoration (FPPHR) assay, 8-ANS displacement
Conditions: compound 50 μM in Running Buffer; 10% minimum for a binder

Question: With `Cc1[nH]nc(N)c1-c1ccccc1` as the compound, how does the “FPPHR % at 50 μM” value read?
Answer: 34.59% and 34.78% tested at 50 µM

Not every entry of the source has a single result; some have several. This is not the full list of results. There may be further records. The records of an entry differ for a reason that is not stated; dose, time, organism, isomer or construct need not be as stated for each record.
